Experimental data published in patent US11958871B2, “Inhibitors of bacterial glutaminyl cyclases for use in the treatment of periodontal and related diseases” (FRAUNHOFER-GESELLSCHAFT ZUR FÖRDERUNG DER ANGEWANDTEN …, priority 2018, dated 2024).
At least one structure is not confirmed: it was looked up by name or label, or the drawing left a doubt.

Tested on: bacterial glutaminyl cyclases
Test: Inhibition of bacterial glutaminyl cyclases, summary statements
Format: biochemical
Description: For inhibitor testing, the sample composition was the same as described above, except for the addition of the putative inhibitory compound. […] Inhibitory constants were determined using different concentration of H-Gln-AMC varying from ¼ Km-2 Km. Final concentration of bacterial QC was in a range between 25 nM-50 nM.
The following compounds were synthesized as described in the Description of synthetic methods below. Average Ki values for the inhibition of PgQC (isolated and purified as described above), TfQC, PiQC and hQC were measured using the above inhibitor assay and are shown in. Ki refers to the average Ki values measured as described above, and Std(Ki) refers to the standard deviation of Ki.

## c1ccc(CNc2cnc3[nH]cnc3c2)cc1 [Example 2, N-Benzylimidazo[4,5-b]pyridin-6-amine]
  inhibitory activity against bacterial glutaminyl cyclases (in words): significant bacQC inhibitory activity and selectivity for PgQC over hQC
